Measurements taken from publication PMC5117207.

Columns and labels:
Experiment in all cases: pull-down; GST-HSP90 fragments on glutathione-agarose beads incubated overnight at 4°C with purified His-tagged GR-LBD or REV-ERBα; eluted with 10 mM reduced glutathione; western blot with anti-GST and anti-His antibodies; both purified
[1] = target: GST-Hsp90 C(626-732)
[2] = target: GST-Hsp90M(272-617)
[3] = target: GST-Hsp90 N(9-236)

- binding [1]: binds
- binding [2]: no binding
- binding [3]: no binding
B1: full-length REV-ERBα, His-tagged (protein, UniProt Q3UV55 1-615)
chain: MTTLDSNNNTGGVITYIGSSGSSPSRTSPESLYSDSSNGSFQSLTQGCPTYFPPSPTGSLTQDPARSFGSAPPSLSDDSSPSSASSSSSSSSSSFYNGSPPGSLQVAMEDSSRVSPSKGTSNITKLNGMVLLCKVCGDVASGFHYGVHACEGCKGFFRRSIQQNIQYKRCLKNENCSIVRINRNRCQQCRFKKCLSVGMSRDAVRFGRIPKREKQRMLAEMQSAMNLANNQLSSLCPLETSPTPHPTSGSMGPSPPPAPAPTPLVGFSQFPQQLTPPRSPSPEPTMEDVISQVARAHREIFTYAHDKLGTSPGNFNANHASGSPSATTPHRWESQGCPSAPNDNNLLAAQRHNEALNGLRQGPSSYPPTWPSGPTHHSCHQPNSNGHRLCPTHVYSAPEGEAPANSLRQGNTKNVLLACPMNMYPHGRSGRTVQEIWEDFSMSFTPAVREVVEFAKHIPGFRDLSQHDQVTLLKAGTFEVLMVRFASLFNVKDQTVMFLSRTTYSLQELGAMGMGDLLNAMFDFSEKLNSLALTEEELGLFTAVVLVSADRSGMENSASVEQLQETLLRALRALVLKNRPSETSRFTKLLLKLPDLRTLNNMHSEKLLSFRVDAQ

These are yes or no findings as the source states them, for the method shown. For part of these data: A result given as binding can be weak or reduced; the word gives no strength. Sequences can lack the tags named with a protein.
